Reference: the supplement of paper PMC9233669
Variants at the floor of the assay are shown more often than the library holds them.

Key:
biotinyl-Trp-oxazolone = experiment: self-aminoacylation, catalytic enhancement (BWO) (fold over background); higher = more active; k-Seq, kA / k0A0; sequences stand for … in GGGAAUGGAUCCACAUCUACGAAUUC…UUCACUGCAGACUUGACGAAGCUG
Procedure, shortened: (§1)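 Catalytic enhancement equals the median kA over the uncatalyzed rate, the latter read from the low-activity peak of a bimodal Gaussian fit. Values of kA came from fitting each sequence's fraction reacted to a pseudo-first-order model, with 1000 bootstraps. Reacted RNA was captured with streptavidin and quantified by triplicate qPCR and Illumina sequencing after 90 minutes at room temperature with 2–1250 μM biotinyl-aminoacyl-oxazolone and 0.43 μM mutagenized RNA pools bearing a 21-nt variable region.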

biotinyl-Leu-oxazolone = experiment: self-aminoacylation, catalytic enhancement (BLO) (fold over background); higher = more active; k-Seq, kA / k0A0; sequences stand for … in GGGAAUGGAUCCACAUCUACGAAUUC…UUCACUGCAGACUUGACGAAGCUG
Procedure, shortened: as §1

biotinyl-Val-oxazolone = experiment: self-aminoacylation, catalytic enhancement (BVO) (fold over background); higher = more active; k-Seq, kA / k0A0; sequences stand for … in GGGAAUGGAUCCACAUCUACGAAUUC…UUCACUGCAGACUUGACGAAGCUG
Procedure, shortened: as §1

biotinyl-Ile-oxazolone = experiment: self-aminoacylation, catalytic enhancement (BIO) (fold over background); higher = more active; k-Seq, kA / k0A0; sequences stand for … in GGGAAUGGAUCCACAUCUACGAAUUC…UUCACUGCAGACUUGACGAAGCUG
Procedure, shortened: as §1

biotinyl-Met-oxazolone = experiment: self-aminoacylation, catalytic enhancement (BMO) (fold over background); higher = more active; k-Seq, kA / k0A0; sequences stand for … in GGGAAUGGAUCCACAUCUACGAAUUC…UUCACUGCAGACUUGACGAAGCUG
Procedure, shortened: as §1

biotinyl-Phe-oxazolone = experiment: self-aminoacylation, catalytic enhancement (BFO) (fold over background); higher = more active; k-Seq, kA / k0A0; sequences stand for … in GGGAAUGGAUCCACAUCUACGAAUUC…UUCACUGCAGACUUGACGAAGCUG
Procedure, shortened: as §1

Sequence | self-aminoacylation (biotinyl-Trp-oxazolone) | self-aminoacylation (biotinyl-Leu-oxazolone) | self-aminoacylation (biotinyl-Val-oxazolone) | self-aminoacylation (biotinyl-Ile-oxazolone) | self-aminoacylation (biotinyl-Met-oxazolone) | self-aminoacylation (biotinyl-Phe-oxazolone)
AUUACCUUGGUCAUCGAGUGU [Fam2.1 aminoacylation ribozyme variant] | 3.8 | 3.59 | 2.37 | 2.19 | 3.47 | 3.39
AUUACCUUGGUCGUCGAGUGA [Fam2.1 aminoacylation ribozyme variant] | 0.907 | 0.851 | 1.02 | 1.03 | 1.09 | 1.55
AUUACUCUGGUCAUCCAGUGA [Fam2.1 aminoacylation ribozyme variant] | 6.01 | 5.29 | 2.74 | 3.2 | 5.01 | 17.3
AUUACUCUGGUCAUCGAUUGA [Fam2.1 aminoacylation ribozyme variant] | 0.716 | 1.06 | 0.938 | 0.896 | 0.959 | 0.576
AUUAGCCUGGUCAUCGAGUCA [Fam2.1 aminoacylation ribozyme variant] | 0.952 | 0.798 | 1 | 0.947 | 0.901 | 0.57
AUUAUCCUGGUCAACGAGUGA [Fam2.1 aminoacylation ribozyme variant] | 7.67 | 8.02 | 3.87 | 3.69 | 6.62 | 30.1
AUUAUCCUGGUCAUCGAAUGA [Fam2.1 aminoacylation ribozyme variant] | 0.435 | 1.11 | 1.1 | 0.962 | 1.01 | 0.645
AUUAUCCUGGUCAUCGAUUGA [Fam2.1 aminoacylation ribozyme variant] | 0.883 | 1.06 | 0.882 | 0.867 | 0.968 | 0.706
AUUAUCCUGGUCAUCGUGUGA [Fam2.1 aminoacylation ribozyme variant] | 5.91 | 3.83 | 2.05 | 2.15 | 3.54 | 28.6
AUUCAACUAGGUCAUAGGGUG [Fam2.2 aminoacylation ribozyme variant] | 1.47 | 2.58 | 1.28 | 1.49 | 2 | 9.13
AUUCACAUAGCUCAUCGGGUG [Fam2.2 aminoacylation ribozyme variant] | 2.34 | 2.36 | 2.38 | 2 | 1.91 | 12.6
AUUCACAUAGGUCAUCGGAUG [Fam2.2 aminoacylation ribozyme variant] | 0.403 | 0.649 | 0.857 | 0.903 | 0.698 | 0.549
AUUCACAUAGGUCAUCGGGGG [Fam2.2 aminoacylation ribozyme variant] | 2.66 | 1.93 | 1.87 | 1.85 | 2.28 | 0.694
AUUCACAUAGGUCAUCGGUUG [Fam2.2 aminoacylation ribozyme variant] | 0.829 | 1.08 | 0.966 | 0.998 | 1.09 | 0.749
AUUCACAUGGGUCAUCGGGUG [Fam2.2 aminoacylation ribozyme variant] | 8.84 | 11.6 | 5.96 | 5.6 | 9.66 | 70.4
AUUCACCCAGGUCAUCGGUUG [Fam2.2 aminoacylation ribozyme variant] | 1.26 | 1.57 | 1.22 | 1.05 | 1.38 | 0.67
AUUCACCUAAGUCGUCGGGUG [Fam2.2 aminoacylation ribozyme variant] | 2.02 | 2.55 | 1.87 | 1.88 | 2.18 | 10.1
AUUCACCUAGCUCAUCGGGCG [Fam2.2 aminoacylation ribozyme variant] | 1.8 | 2.33 | 2.57 | 2.26 | 2.3 | 11.7
AUUCACCUAGGCCAUCGGAUG [Fam2.2 aminoacylation ribozyme variant] | 0.627 | 0.863 | 0.921 | 0.824 | 0.758 | 0.269
AUUCACCUAGGCCAUCGGGUC [Fam2.2 aminoacylation ribozyme variant] | 1.99 | 1.13 | 1.73 | 1.08 | 1.1 | 0.438
AUUCACCUAGGGCAUCGGGUC [Fam2.2 aminoacylation ribozyme variant] | 1.15 | 1.44 | 1.44 | 1.67 | 1.28 | 1.72
AUUCACCUAGGUAAUCGGGAG [Fam2.2 aminoacylation ribozyme variant] | 0.908 | 0.784 | 0.876 | 0.764 | 0.939 | 0.524
